The source of these data is publication doi:10.1101/2022.01.31.478434.

Amino acid sequences for entries named in this document (tags omitted). A change or cut given only in a name is not applied to a line headed by its entry. Chains listed by the source or under a name are the forms on record and can include a tag or linker. Residues count along the entry.
UniProt Q13772: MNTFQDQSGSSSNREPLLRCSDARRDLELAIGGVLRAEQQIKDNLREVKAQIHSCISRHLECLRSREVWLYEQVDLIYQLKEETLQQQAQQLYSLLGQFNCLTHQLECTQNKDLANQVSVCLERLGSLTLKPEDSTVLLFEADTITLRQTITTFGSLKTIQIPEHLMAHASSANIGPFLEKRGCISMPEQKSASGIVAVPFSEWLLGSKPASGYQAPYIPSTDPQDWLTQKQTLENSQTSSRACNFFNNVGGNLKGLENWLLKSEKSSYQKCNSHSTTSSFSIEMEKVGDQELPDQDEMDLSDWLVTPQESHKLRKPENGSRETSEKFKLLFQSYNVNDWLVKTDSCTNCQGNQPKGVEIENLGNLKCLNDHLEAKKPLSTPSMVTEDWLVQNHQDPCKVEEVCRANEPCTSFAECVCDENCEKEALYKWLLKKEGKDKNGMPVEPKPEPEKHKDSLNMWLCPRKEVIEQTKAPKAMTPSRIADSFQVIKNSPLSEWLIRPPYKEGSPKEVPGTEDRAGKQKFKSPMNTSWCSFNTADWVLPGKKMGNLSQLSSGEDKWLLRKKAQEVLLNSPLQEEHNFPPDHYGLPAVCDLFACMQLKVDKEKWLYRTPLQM
N-terminal domain of NCOA4 (NCOA4N) fused with mGFP, wild type: residues 1-182 of Q13772
N-terminal domain of NCOA4 (NCOA4N) fused with mGFP, L63R (Q13772-1, form named): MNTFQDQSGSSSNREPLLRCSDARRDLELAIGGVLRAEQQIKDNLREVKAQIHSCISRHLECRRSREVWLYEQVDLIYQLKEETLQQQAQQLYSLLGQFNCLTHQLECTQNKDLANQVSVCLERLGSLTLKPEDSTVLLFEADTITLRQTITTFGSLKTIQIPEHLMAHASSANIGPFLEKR
N-terminal domain of NCOA4 (NCOA4N) fused with mGFP, I56E (Q13772-1, form named): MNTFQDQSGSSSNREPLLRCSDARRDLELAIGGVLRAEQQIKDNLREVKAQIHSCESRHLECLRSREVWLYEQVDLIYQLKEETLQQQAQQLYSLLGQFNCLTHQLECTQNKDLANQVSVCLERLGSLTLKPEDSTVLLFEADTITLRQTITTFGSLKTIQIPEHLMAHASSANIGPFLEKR

These are yes or no findings as the source states them, for the method shown. Binding seen in cells or lysates may run through a third protein. Some binding calls cover weakened binding; strength is not graded here.

Common to all, as to experiment: co-IP
Test [1] has as its target 3×FLAG-tagged NCOA4 (full-length) L63R (human) (UniProt Q13772).
Test [2] addresses 3×FLAG-tagged NCOA4 (full-length) I56E (human) (UniProt Q13772).
Test [3] addresses 3×FLAG-tagged NCOA4 (full-length), wild type (human) (UniProt Q13772).

In the case of “N-terminal domain of NCOA4 (NCOA4N) fused with mGFP, L63R (from UniProt Q13772-1 1-182) (domain or fragment)”, the binding entry in test [1] is listed as “no binding”.

Take “N-terminal domain of NCOA4 (NCOA4N) fused with mGFP, I56E (from UniProt Q13772-1 1-182) (domain or fragment)”: the binding result in test [2] is reported as “no binding”.

For “N-terminal domain of NCOA4 (NCOA4N) fused with mGFP, wild type (from UniProt Q13772-1 1-182) (domain or fragment)”, in test [3], the binding result is “binds”.
